Data taken from PubChem BioAssay AID330 (DTP/NCI, 2004).
The list shows only some results of the screen, not a fair sample: it is rich in T/C values a quarter to a half above the control, in often repeated tests (any T/C) and in doses without a T/C. Further doses and runs are listed elsewhere. T/C is the treated group as % of the vehicle group. Some entries give survivors of the animals treated and no T/C: the source holds a T/C of zero for them, seemingly a mark for toxic or unscored doses. Some survivor counts are full or nearly so, which does not show that the dose was tolerated: survival well below the control is almost never listed, so the zero probably covers shortened survival too. Survivors were counted at the toxicity check, usually on the fifth day, unless a day is given; later deaths do not show. Schedule codes are those of the source, read here as Q, the interval in days (D) or hours (H), X, the number of doses. Where survival is the endpoint, the PubChem record calls one and a half times the control and up active, and a quarter to a half above the control has no call in these data; cut-offs in other NCI protocols can differ. Some T/C values carry the count of animals alive at the toxicity check (mostly the fifth day); where none is given, no animal had died by that day.

Test system: P388 leukemia ip, CD2F1 mice, survival T/C
Experiment: NCI In Vivo Anticancer Drug Screen. Data for tumor model P388 Leukemia (intraperitoneal) in CD2F1 (CDF1) mice
Details: T/C endpoint: median survival time, higher T/C = longer survival
[1] = dose: 200.0 mg/kg/injection, schedule: Q01DX009 (ip), vehicle: saline
[2] = dose: 200.0 mg/kg/injection, schedule: Q01DX005 (ip), vehicle: saline
[3] = dose: 6.25 mg/kg/injection, schedule: Q01DX009 (ip), vehicle: saline with Tween-80
[4] = dose: 12.5 mg/kg/injection, schedule: Q01DX009 (ip), vehicle: saline with Tween-80
[5] = dose: 25.0 mg/kg/injection, schedule: Q01DX009 (ip), vehicle: saline with Tween-80
[6] = dose: 25.0 mg/kg/injection, schedule: Q01DX009 (ip), vehicle: saline
[7] = dose: 50.0 mg/kg/injection, schedule: Q01DX009 (ip), vehicle: saline
[8] = dose: 100.0 mg/kg/injection, schedule: Q01DX009 (ip), vehicle: saline
[9] = dose: 50.0 mg/kg/injection, schedule: Q01DX009 (ip), vehicle: saline with Tween-80
[10] = dose: 100.0 mg/kg/injection, schedule: Q01DX009 (ip), vehicle: saline with Tween-80
[11] = dose: 200.0 mg/kg/injection, schedule: Q01DX009 (ip), vehicle: saline with Tween-80
[12] = dose: 1.56 mg/kg/injection, schedule: Q01DX009 (ip), vehicle: saline with Tween-80
[13] = dose: 240.0 mg/kg/injection, schedule: Q01DX005 (ip), vehicle: saline with Tween-80
[14] = dose: 400.0 mg/kg/injection, schedule: Q04DX003 (ip), vehicle: saline with Tween-80

CC1=C(C)C(=O)c2c(c(O)c3ccccc3c2Cl)C1=O
survivor count (dose: 6.25 mg/kg/injection, schedule: Q01DX005 (ip), vehicle: saline): 6 of 6 | survivor count (dose: 12.5 mg/kg/injection, schedule: Q01DX005 (ip), vehicle: saline): 6 of 6 | survivor count (dose: 25.0 mg/kg/injection, schedule: Q01DX005 (ip), vehicle: saline): 6 of 6 | survivor count (dose: 50.0 mg/kg/injection, schedule: Q01DX005 (ip), vehicle: saline with Tween-80): 6 of 6 | survivor count (dose: 100.0 mg/kg/injection, schedule: Q01DX005 (ip), vehicle: saline with Tween-80): 6 of 6

O=c1[nH]c(=O)c2nc3c([N+](=O)[O-])ccc(-c4cccc5ccccc45)c3nc2[nH]1
survivor count [1]: 1 of 6

CN1CCN(C(=O)CCSc2nc(-c3ccccc3)c(-c3ccccc3)o2)CC1
survivor count [1]: 0 of 6

CCOC1=N[C@H](C)[C@H](C)N1
survivor count [2]: 0 of 6

ClCCN(CCCl)CCCN1c2ccccc2Sc2ccccc21
T/C [3]: 131 % of control | T/C [4]: 140 % of control | survivor count [5]: 6 of 6

COC12C(COC(N)=O)C3=C(C(=O)C(C)=C(N4CC4)C3=O)N1CC1NC12 (stereo not given)
T/C (dose: 0.5 mg/kg/injection, schedule: Q04DX003 (ip), vehicle: saline with Tween-80): 145 % of control

COC1=CC(=O)C(CO)=CC1=O
survivor count [6]: 3 of 6 | survivor count [7]: 0 of 6 | survivor count [8]: 0 of 6 | survivor count [1]: 0 of 6

COc1cc(C=Nc2cccc(Cl)c2)ccc1N(CCCl)CCCl
T/C (dose: 33.0 mg/kg/injection, schedule: Q04DX003 (ip), vehicle: saline with Tween-80): 135 % of control | T/C (dose: 50.0 mg/kg/injection, schedule: Q04DX003 (ip), vehicle: saline with Tween-80): 145 % of control [5 of 6 alive] | T/C (dose: 75.0 mg/kg/injection, schedule: Q04DX003 (ip), vehicle: saline with Tween-80): 125 % of control [4 of 6 alive] | survivor count (dose: 100.0 mg/kg/injection, schedule: Q04DX003 (ip), vehicle: saline with Tween-80): 5 of 6

O=C(OCN1C(=O)C2C3C=CC(C2C1=O)C1C2C(=O)N(COC(=O)C4CCCN4)C(=O)C2C31)C1CCCN1 (stereo not given)
T/C [7]: 128 % of control | survivor count [1]: 4 of 6

Cc1ccc(C(=O)CCN(C)C)cc1
survivor count [1]: 0 of 6

CCOC(=O)/C=C(\Br)C(=O)OCC
survivor count [4]: 2 of 6 | survivor count [5]: 0 of 6 | survivor count [9]: 0 of 6 | survivor count [10]: 0 of 6 | survivor count [11]: 0 of 6

N=C(N)c1ccc(OCCCOc2ccc(C(=N)N)cc2Br)c(Br)c1
T/C (dose: 6.25 mg/kg/injection, schedule: Q01DX009 (ip), vehicle: saline): 140 % of control | T/C (dose: 16.5 mg/kg/injection, schedule: Q01DX009 (ip), vehicle: saline sonified): 133 % of control | T/C (dose: 25.0 mg/kg/injection, schedule: Q01DX009 (ip), vehicle: saline sonified): 142 % of control | T/C [6]: 136 % of control | T/C (dose: 37.5 mg/kg/injection, schedule: Q01DX009 (ip), vehicle: saline sonified): 142 % of control [5 of 6 alive] | T/C (dose: 50.0 mg/kg/injection, schedule: Q04DX003 (ip), vehicle: saline sonified): 131 % of control [5 of 6 alive] | survivor count (dose: 75.0 mg/kg/injection, schedule: Q04DX003 (ip), vehicle: saline): 4 of 6 | survivor count (dose: 100.0 mg/kg/injection, schedule: Q04DX003 (ip), vehicle: saline sonified): 1 of 6 | survivor count (dose: 200.0 mg/kg/injection, schedule: Q04DX003 (ip), vehicle: saline sonified): 0 of 6

C=CCN(CC=C)C(CC(=O)C(C)(C)C)=NCC
survivor count [8]: 0 of 6 | survivor count [1]: 0 of 6

C=C1C(=O)C23OC2C1CCC(=O)C1(C)CC[C@H](OC(C)=O)C(C)(C)[C@H]1CC3=O (stereo not given in full)
survivor count (dose: 20.0 mg/kg/injection, schedule: Q01DX005 (ip), vehicle: Klucel (hydroxypropylcellulose) (HPC)): 0 of 6

OC(c1cc(-c2ccc(C(F)(F)F)cc2)nc(C(F)(F)F)c1)C1CCCCN1 (stereo not given)
survivor count [9]: 5 of 6

Cc1ccc(NCc2ccccn2)nc1
survivor count (dose: 200.0 mg/kg/injection, schedule: Q01DX005 (ip), vehicle: saline with Tween-80): 0 of 6

CC(=O)Nc1ccc(C(F)(F)F)cc1
survivor count (dose: 200.0 mg/kg/injection, schedule: Q01DX009 (ip), vehicle: suspension in saline): 3 of 6

c1ccc(-c2ccc(-c3cn4c(n3)SCC4)cc2)cc1
survivor count (dose: 100.0 mg/kg/injection, schedule: Q01DX001 (ip), vehicle: Klucel (hydroxypropylcellulose) (HPC)): 5 of 6 | survivor count (dose: 400.0 mg/kg/injection, schedule: Q01DX001 (ip), vehicle: Klucel (hydroxypropylcellulose) (HPC)): 6 of 6

O=c1[nH]cnc2nn(C3OC(CO)C(O)C3O)cc12 (stereo not given)
T/C [12]: 135 % of control | survivor count [12]: 6 of 6 | survivor count [3]: 6 of 6

CC1C(c2ccccc2)OC(N2CCOCC2)C(C)(C)CN1C (stereo not given)
T/C (dose: 400.0 mg/kg/injection, schedule: Q01DX005 (ip), vehicle: saline with Tween-80): 126 % of control | survivor count (dose: 800.0 mg/kg/injection, schedule: Q01DX005 (ip), vehicle: saline with Tween-80): 0 of 6

NCCc1ccc([N+](=O)[O-])cc1
survivor count [1]: 0 of 6 | survivor count (dose: 400.0 mg/kg/injection, schedule: Q01DX009 (ip), vehicle: saline): 0 of 6

CCOc1cccs1
survivor count [13]: 2 of 6

O=S(=O)(Nc1ccccn1)c1ccc(N(CCCl)CCCl)cc1
survivor count [14]: 5 of 6

OCC1OC(n2c(=S)[nH]c3ccccc32)C(O)C1O (stereo not given)
survivor count [13]: 0 of 6

Nc1nc(N)c(Cc2ccccn2)cc1Cc1ccccn1
survivor count (dose: 200.0 mg/kg/injection, schedule: Q01DX005 (ip), vehicle: Klucel (hydroxypropylcellulose) (HPC)): 1 of 6

CN(C)C(=S)S(=O)(=O)c1ccccc1
survivor count (dose: 50.0 mg/kg/injection, schedule: Q01DX009 (ip), vehicle: Klucel (hydroxypropylcellulose) (HPC)): 3 of 6 | survivor count (dose: 100.0 mg/kg/injection, schedule: Q01DX009 (ip), vehicle: Klucel (hydroxypropylcellulose) (HPC)): 0 of 6 | survivor count (dose: 200.0 mg/kg/injection, schedule: Q01DX009 (ip), vehicle: Klucel (hydroxypropylcellulose) (HPC)): 0 of 6

CCO/C=C1\SC(=S)N(c2ccc(C(=O)O)cc2)C1=O
survivor count [14]: 3 of 6

CC(C)(C)C(=O)CP(=O)(O)O (tested in a mixture with another compound)
survivor count [1]: 0 of 6

O=c1cn[nH]c(=O)[nH]1
survivor count (dose: 500.0 mg/kg/injection, schedule: Q01DX010 (ip), vehicle: saline): 7 of 7

CCN(CC)CC(C)(O)CNc1cc(OC)cc2cccnc12 (stereo not given)
survivor count (dose: 100.0 mg/kg/injection, schedule: Q01DX005 (ip), vehicle: saline): 0 of 5 | survivor count [2]: 0 of 5

ClCCN(CCCl)c1ccc(N=Cc2ccccc2)cc1
T/C [3]: 133 % of control | survivor count [3]: 6 of 6 | survivor count [4]: 6 of 6 | survivor count [5]: 4 of 6 | survivor count [9]: 2 of 6 | survivor count [10]: 0 of 6 | survivor count [11]: 0 of 6

COc1cc(C2c3cc4c(cc3OC(O)C2C)OCO4)cc(OC)c1OC (stereo not given)
T/C (dose: 120.0 mg/kg/injection, schedule: Q01DX005 (ip), vehicle: saline with Tween-80): 125 % of control | survivor count [13]: 6 of 6

CC(=O)OCC12C(=O)CC(C)C3(CC(c4ccoc4)OC3=O)C1CCC(=O)C2(O)CCl (stereo not given)
survivor count (dose: 100.0 mg/kg/injection, schedule: Q01DX005 (ip), vehicle: saline + Tween-80 + alcohol): 6 of 6

COc1ccc(C(c2c(O)c3ccccc3oc2=O)N2CCOCC2)c(OC)c1 (stereo not given)
survivor count [13]: 0 of 6
